Data source: PubChem BioAssay AID504786 (Drosophila RNAi Screening Center, 2011)
Purpose: 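Knock-downs reducing HIF reporter induction by the iron chelator DFO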 (primary screen). Cell system: Drosophila S2 cells with a stable HIF luciferase reporter. Reagents: long dsRNA against Drosophila genes, about 0.2 µg dsRNA per well of a 384-well plate. Duration: three days of knock-down, then 20 h of DFO before reading. Challenge: desferrioxamine (DFO) at 100 µM, an iron chelator that mimics hypoxia, for 20 h. Measurement: 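HIF reporter luminescence in cells given 100 µM DFO for 20 h, using the mouse ldh-a hypoxia-response element, scored as per-plate z-scores; higher means greater loss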. Scale: z-score: higher = stronger loss of HIF reporter signal.
In all, the deposit lists about 21,000 reagents; this is an unselected part of those that have a named target and a result. 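Primary screen; positive scores mean lost reporter signal, so the sign may be inverted from the usual convention.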 Reagent sequences are not shown.

scu [SID104200161]
- z-score, replicate 1: -0.4
- z-score, replicate 2: 0

Spec2 (retired record) [SID104192050]
- z-score, replicate 1: -0.4
- z-score, replicate 2: -0.6

CG15601 [SID104199462]
- z-score, replicate 1: -0.5
- z-score, replicate 2: -0.3

Ten-m [SID104191456]
- z-score, replicate 1: -0.3
- z-score, replicate 2: -0.5

Ten-m [SID104191674]
- z-score, replicate 1: -0.3
- z-score, replicate 2: -0.4

CG6567 [SID104195858]
- z-score, replicate 1: -0.3
- z-score, replicate 2: -0.1

GramD1B [SID104180218]
- z-score, replicate 1: -0.3
- z-score, replicate 2: -0.6

GramD1B [SID104180383]
- z-score, replicate 1: -0.3
- z-score, replicate 2: -0.6

E(spl)m7-HLH [SID104196488]
- z-score, replicate 1: -0.5
- z-score, replicate 2: -0.5

ppk27 [SID104187960]
- z-score, replicate 1: -0.4
- z-score, replicate 2: -0.5

CG10993 [SID104199154]
- z-score, replicate 1: -0.3
- z-score, replicate 2: 0.4

zen2 [SID104192425]
- z-score, replicate 1: -0.3
- z-score, replicate 2: -0.5

Sgs5bis [SID104196055]
- z-score, replicate 1: -0.2
- z-score, replicate 2: 0.1

ytr [SID104184098]
- z-score, replicate 1: -0.3
- z-score, replicate 2: -0.4

CG13339 [SID104186165]
- z-score, replicate 1: -0.4
- z-score, replicate 2: -0.5

CG3581 [SID104195291]
- z-score, replicate 1: -0.8
- z-score, replicate 2: 0

Reformatted: 2 of the entries above
gene | PubChem SID | z-score, replicate 1 | z-score, replicate 2
Spec2 (retired record) | SID104192050 | -0.4 | -0.6
CG15601 | SID104199462 | -0.5 | -0.3
